# PubChem BioAssay AID504375 (National Center for Advancing Translational Sciences (NCATS), 2011)
# Amino acid sequences for entries named in this document (tags omitted).
# UniProt Q01196, whole entry, looked up: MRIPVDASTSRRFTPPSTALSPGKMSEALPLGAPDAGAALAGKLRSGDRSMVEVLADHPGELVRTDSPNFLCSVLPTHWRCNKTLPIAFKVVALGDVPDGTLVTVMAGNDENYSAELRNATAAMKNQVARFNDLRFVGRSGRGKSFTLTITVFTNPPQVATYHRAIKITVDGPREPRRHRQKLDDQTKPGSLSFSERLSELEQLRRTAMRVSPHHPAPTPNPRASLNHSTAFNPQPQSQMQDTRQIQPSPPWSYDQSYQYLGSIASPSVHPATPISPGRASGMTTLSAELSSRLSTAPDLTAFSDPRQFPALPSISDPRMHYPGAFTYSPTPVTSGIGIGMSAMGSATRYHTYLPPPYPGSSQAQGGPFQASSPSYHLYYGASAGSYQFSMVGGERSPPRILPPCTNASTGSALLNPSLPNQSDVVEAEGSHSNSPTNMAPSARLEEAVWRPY
# UniProt Q13951, whole entry, looked up: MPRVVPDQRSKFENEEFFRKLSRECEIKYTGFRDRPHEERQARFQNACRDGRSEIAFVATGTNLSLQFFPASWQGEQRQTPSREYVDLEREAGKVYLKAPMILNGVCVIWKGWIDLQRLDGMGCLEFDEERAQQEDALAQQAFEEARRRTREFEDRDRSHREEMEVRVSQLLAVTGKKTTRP
# The whole screen tested about 1,600 compounds, of which about 25 (2%) were called active. Roughly 7% stayed inconclusive and do not appear here. The call rests on the fitted dose curve; in most records, active means well fitted inhibition curve with a large enough effect; inconclusive means small, poorly fitted or top-dose-only effect, or effect the other way; inactive means no such curve, though single readings can be large or run the other way. The list shows a part of the results.
# Target: Runt-related transcription factor 1 (Homo sapiens) + Core-binding factor subunit beta (Homo sapiens) (UniProt Q01196+Q13951)
# Experiment: qHTS Assay for Compounds Blocking the Interaction Between CBF-beta and RUNX1 for the Treatment of Acute Myeloid Leukemia: Hit Validation with Orthogonal Assay
# Conditions: CBFbeta-RUNX1 binding orthogonal assay, biochemical; series mostly up to 41 µM; activity change, negative = inhibition: at the top concentration
# Procedure, shortened: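 Compound was incubated for 30 min with biotin-RUNX1 plus His6-CBF-beta at 30 nM per protein. Binding was then detected by TR-FRET between terbium anti-His antibody and 5 nM streptavidin-XL665, read after 90 min, in the same buffer as the AlphaScreen primary assay.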
# On the % scale 0 is the no-effect control and ±100 the full control effect; potency means the concentration at half of the fitted maximal effect.
Structure (SMILES),"activity change, negative = inhibition",Potency
O=C(COc1ccc([N+](=O)[O-])cc1Cl)N1CCOCC1,inactive: 21.4%,
Nn1c(SCC(=O)Nc2ccc(S(N)(=O)=O)cc2)nnc1C(F)(F)F,inactive: 7.61%,
Cc1nc(SCc2cccc(F)c2)c2oc3ccccc3c2n1,inactive: -3.14%,
O=C(CN1CCN(C(c2ccccc2)c2ccccc2)CC1)N1N=CCC1c1ccccc1 (stereo unspecified),inactive: -8.56%,
Cc1onc(-c2c(F)cccc2Cl)c1C(O)c1ccc(F)cc1 (stereo unspecified),inactive: -0.673%,
CC(C)(C)c1cc2nc(N)nc(N)n2n1,inactive: 2.45%,
CCOP(=O)(c1ccc(N(C)C)cc1)C(O)c1cccnc1 (stereo unspecified),inactive: 21.3%,
Cc1ccc2cc(NC(=O)Cc3ccccc3)ccc2n1,inactive: 3.06%,
CC(=O)c1sc(C(C)(C)C)cc1NC(=O)CCC(=O)O,inactive: 10.2%,
O=C1CCC(c2ccccc2)(c2ccccc2)CC1,inactive: 11.9%,
COC(=O)c1sccc1S(=O)(=O)Nc1ccc(Cl)cc1,inactive: -0.807%,
Cc1[nH]n(-c2ccccc2)c(=O)c1C=Nc1cccc(F)c1,inactive: 15.8%,
C/C(Cc1ccccc1)=N\NC(=O)CNC(=O)c1ccc(Cl)cc1Cl,inactive: -5.63%,
CNS(=O)(=O)c1cc(Cl)ccc1Sc1ccccc1C(=O)O,inactive: -9.33%,
CCC(=O)NC1(C(F)(F)F)C(=O)Nc2c1c(=O)[nH]c(=O)n2CC(C)C (stereo unspecified),inactive: -5.27%,
NC(=O)c1ccc(NC(=O)COC(=O)/C=C/c2ccc3c(c2)OCO3)cc1,inactive: 21.1%,
Cc1ccc(C(=O)/C=C/N(C)C)cn1,inactive: 3.88%,
Cc1nc(N)nc(Nc2ccc(C#N)cc2)c1Br,inactive: -1.3%,
CCCN1CN=C(Nc2nc3ccccc3o2)NC1,inactive: 5.86%,
CSc1ccc(NC(=O)Nc2cc(C)ccn2)cc1,inactive: -0.758%,
CCCC(=O)Nc1ccc2c(c1)nc(CCNC(=O)c1ccco1)n2C,inactive: 4.69%,
O=C(Nc1ccccc1)N1CCN(C2c3ccccc3-c3ccccc32)CC1,inactive: -4.97%,
CCC1=NN(C(=O)Cc2ccc([N+](=O)[O-])cc2)C(O)(C(F)(F)F)C1 (stereo unspecified),inactive: 12.9%,
COc1ccc(NC(=O)O/N=C/c2ccccc2Cl)cc1,inactive: 3.39%,

Structure (SMILES),"activity change, negative = inhibition",Potency
O=C(OCC(O)COC(=O)c1cccnc1)c1cccnc1,inactive: -0.453%,
COc1ccc(Nc2cc(C)nc(NCc3ccccc3)n2)cc1,inactive: -3.57%,
Cc1ccc(C)c(-n2c(-c3ccc(Br)cc3)csc2=NC(=O)c2ccccc2F)c1,inactive: 15.8%,
Clc1ccc(-c2nnc(N3CCOCC3)o2)cc1,inactive: -5.87%,
Cn1cccc1/C=C(\C#N)C(N)=S,inactive: 21.6%,
CCCn1nnc(NC(=O)c2ccc3c(c2)OCO3)n1,inactive: 3.68%,
Cn1nc(-c2ccccc2)cc1NS(=O)(=O)c1ccc(C#N)cc1,inactive: -0.807%,
COC(=O)C1=C(N)Oc2c(oc(CO)cc2=O)C1c1ccc(F)cc1 (stereo unspecified),inactive: 9%,
C/C(Cc1ccccc1)=N\NC(=O)CNC(=O)COc1cccc(C)c1,inactive: -8.61%,
O=C(O)c1cc(NN=C2CCN(Cc3ccccc3)CC2)ccc1Cl,inactive: -0.979%,
NC(=O)C1CCN(c2c([N+](=O)[O-])cc(C(F)(F)F)cc2[N+](=O)[O-])CC1,inactive: 51.5%,
O=C(NN1C(=O)C2CCCCC2C1=O)c1ccco1 (stereo unspecified),inactive: -0.159%,
Cc1cc(=O)[nH]c2c1c(-c1ccccc1)nn2C,inactive: -7.17%,
O=C(NCCC(=O)N1CCOCCOCCOCCOCC1)OCc1ccccc1,inactive: -6.46%,
C=CCn1c(SCc2n[nH]c(=S)n2-c2ccccc2)nnc1-c1ccccc1,inactive: 9.91%,
COCc1cc(=O)n2[nH]c(C(C)(C)C)cc2n1,inactive: -2.01%,
CCc1c(C#N)sc(C(N)=O)c1CC,inactive: -0.832%,
CCCOc1ccc(C(=O)NC(=S)NNC(=O)c2c(-c3ccccc3)noc2C)cc1,inactive: 8.42%,
O=c1c(O)cccc2cc(O)c(O)c(O)c12,,active: 1.26 µM
Cc1cccc(C)c1N1C(=O)[C@@H]2C(c3ccccc3Cl)=NO[C@@H]2C1=O,inactive: 1.27%,
CCOc1ccccc1/C=C(/C#N)C(N)=O,inactive: -2.47%,
Cn1c2ccccc2c(=O)c2c(=O)n(Cc3ccccc3)c(-c3ccc(F)cc3)nc21,inactive: 4.67%,
Cc1onc(-c2c(Cl)cccc2Cl)c1NC(=O)NC1CCSC1 (stereo unspecified),inactive: 0.122%,
N#C/C(=N\Nc1ccccc1)C(=N)N1CCCCCC1,inactive: 16.5%,

# Structures from the list above containing fluorine, in the order listed:
Structure (SMILES),"activity change, negative = inhibition",Potency
Nn1c(SCC(=O)Nc2ccc(S(N)(=O)=O)cc2)nnc1C(F)(F)F,inactive: 7.61%,
Cc1nc(SCc2cccc(F)c2)c2oc3ccccc3c2n1,inactive: -3.14%,
Cc1onc(-c2c(F)cccc2Cl)c1C(O)c1ccc(F)cc1 (stereo unspecified),inactive: -0.673%,
Cc1[nH]n(-c2ccccc2)c(=O)c1C=Nc1cccc(F)c1,inactive: 15.8%,
CCC(=O)NC1(C(F)(F)F)C(=O)Nc2c1c(=O)[nH]c(=O)n2CC(C)C (stereo unspecified),inactive: -5.27%,
CCC1=NN(C(=O)Cc2ccc([N+](=O)[O-])cc2)C(O)(C(F)(F)F)C1 (stereo unspecified),inactive: 12.9%,
Cc1ccc(C)c(-n2c(-c3ccc(Br)cc3)csc2=NC(=O)c2ccccc2F)c1,inactive: 15.8%,
COC(=O)C1=C(N)Oc2c(oc(CO)cc2=O)C1c1ccc(F)cc1 (stereo unspecified),inactive: 9%,
NC(=O)C1CCN(c2c([N+](=O)[O-])cc(C(F)(F)F)cc2[N+](=O)[O-])CC1,inactive: 51.5%,
Cn1c2ccccc2c(=O)c2c(=O)n(Cc3ccccc3)c(-c3ccc(F)cc3)nc21,inactive: 4.67%,

# Additional records follow:

Structure (SMILES),"activity change, negative = inhibition",Potency
c1ccc(CSc2ccc(-c3ccccn3)nn2)nc1,inactive: 1.03% [at 82.4 µM],
COC(=O)/C=C(\C)N=Nc1c(O)[nH]c2ccccc12,inactive: 0.355%,
COc1ccc(CCNc2c3ccccc3nc3ccccc23)cc1OC,inactive: 38.1%,
CSc1nc(SCC(=O)O)c2sc3nc(-c4ccccc4)c4c(c3c2n1)CCC4,inactive: 1.36%,
CCN1CCN(Cc2cc(=O)oc3ccc(C)cc23)CC1,inactive: 0.208%,
CCCS(=O)(=O)c1c(S(=O)(=O)CCC)c2cnccn2c1C(=O)c1ccc(OC)cc1,inactive: 7.28%,
c1ccc(-c2ccc(-c3ccccn3)s2)nc1,inactive: 38.8%,
Nc1nc(CCl)nc(Nc2cccc3ccccc23)n1,inactive: -21%,
COC(=O)c1scc(C)c1S(=O)(=O)Nc1ccc(C)cc1,inactive: 4.6%,
CC(C)c1nc2oc3c(N(C)CCO)ncnc3c2c2c1CCC2,inactive: -6.9%,
COc1ccc(C(=O)CSc2nnc3n2CCCN3C(=O)Nc2ccccc2)cc1,inactive: 4.14%,
CC(=O)Nc1ccc(S(=O)(=O)Nc2cc(-c3ccccc3)nn2C)cc1,inactive: 17.3%,
Cn1cc(NC(=O)Nc2ccc(C(F)(F)F)cc2)c(C(F)(F)F)n1,inactive: -3.45%,
COc1cccc(C2/C(=C(/O)c3ccccc3)C(=O)C(=O)N2Cc2ccco2)c1 (stereo unspecified),inactive: 4.5%,
O=C(Oc1c(-c2ccccc2)c(=O)n2c3c(cccc13)CC2)c1ccco1,inactive: 5.11%,
COC(=O)c1[nH]c2cc(OC)ccc2c1NC(=O)c1c(F)cccc1F,inactive: -0.685%,
O=C(OCC1OC(OC(=O)c2cc(O)c(O)c(OC(=O)c3cc(O)c(O)c(O)c3)c2)[C@@H](OC(=O)c2cc(O)c(O)c(OC(=O)c3cc(O)c(O)c(O)c3)c2)C(OC(=O)c2cc(O)c(O)c(OC(=O)c3cc(O)c(O)c(O)c3)c2)C1OC(=O)c1cc(O)c(O)c(OC(=O)c2cc(O)c(O)c(O)c2)c1)c1cc(O)c(O)c(OC(=O)c2cc(O)c(O)c(O)c2)c1 (stereo partly specified),,active: 10 µM
c1cnc2ccc3ncccc3c2c1,inactive: -18.1%,
S=c1[nH]c2cc3ccccc3cc2[nH]1,inactive: 22.5%,
Cn1cc(Br)c(NC(=O)/C=C/C(=O)O)n1,inactive: -1.84%,
O=c1nc(SCc2ccc(Cl)cc2)nc(-c2ccccc2)[nH]1,inactive: -4.14%,
C=CCSC(CC)(CC)C(N)=O,inactive: -3.22%,
O=C(CCCCl)NC(=S)Nc1ccc(N2CCOCC2)cc1,inactive: 0.404%,
CC(C)(C)c1ccc(NC(=S)NCc2cccnc2)cc1,inactive: -6.7%,

Structure (SMILES),"activity change, negative = inhibition",Potency
S=C1SCN(Cc2ccco2)CN1Cc1ccco1,inactive: 7.9%,
NC(=O)c1cccnc1Oc1ccc(Cl)cc1,inactive: -4.34%,
COc1ccc([N+](=O)[O-])c(S(=O)(=O)c2ccccc2)n1,inactive: 40.8%,
C/C(=N\Nc1cccc(Cl)c1)C1(C)N(O)C(C)(C)C(c2ccco2)=[N+]1[O-] (stereo unspecified),inactive: 18.1%,
Cc1cnc(NS(=O)(=O)c2ccc(Cl)cc2)c(Br)c1,inactive: -13.8%,
CCOC(=O)C1=C(C)N(CC(C)C)C(=O)/C1=C\c1cccs1,inactive: 14.3%,
O=c1c2cc(-c3ccccc3)sc2nc2n1N=C(c1ccccc1)CS2,inactive: -8.36%,
Cn1c(=O)c2cc3ccc(Cl)cc3nc2n(C)c1=O,inactive: 20.1%,
CCn1c(SCC(=O)Nc2c(C#N)cnn2-c2ccccc2)nnc1-c1cccs1,inactive: 6.31%,
Cc1ccc(C#CC(C)(O)C(C)(C)C)cn1 (stereo unspecified),inactive: -7.33%,
CC(C)(C)c1ccc(CCC2OCC(CN3CCOCC3)O2)cc1 (stereo unspecified),inactive: -4.47%,
Cc1nn(C)c(C)c1NC(=O)/C(C#N)=C\N(C)C,inactive: -5.6%,
COc1cc(-c2noc(C)n2)cc(OC)c1OC,inactive: 1.19%,
O=C(O)c1ccc(S(=O)(=O)Nc2cccc(CP(=O)(c3ccccc3)c3ccccc3)c2)cc1,inactive: -7.66%,
COC(=O)C1=C(C)Nc2c(c(=O)n(C)c(=O)n2C)C1c1cccc(O)c1 (stereo unspecified),inactive: -5.82%,
COc1ccc(-c2nc(-c3cccnc3)no2)cc1OC,inactive: 5.75%,
CC(C)N1CN(c2ccccc2)C(=S)N(c2ccccc2)C1,inactive: 6.57%,
Cc1ccc(CNc2nc(N)c([N+](=O)[O-])c(NCCO)n2)cc1,inactive: 28.8%,
N#CCc1cnc2ccccc2n1,inactive: 23.1%,
Clc1ccc(-c2ccccc2)nn1,inactive: 11.3%,
CCN(CC)c1ncc(C#N)c(N)n1,inactive: -7.89%,
CCN(CC)S(=O)(=O)c1cccc(C(=O)N/N=C2\CCCC(=O)C2)c1,inactive: 19.9%,
CNC(=O)n1cc(C)c(-c2cccs2)n1,inactive: -2.9%,
COC(=O)c1ccc(S(=O)(=O)NCc2ccco2)n1C,inactive: 0.869%,

Structure (SMILES),"activity change, negative = inhibition",Potency
CC1(C)Cc2c(c(=S)nc(-c3ccccc3)n2Cc2cccnc2)CO1,inactive: 18.4%,
Cc1ccc(C[n+]2cc(-c3ccc(Cl)cc3)n3c2CCC3)cc1,inactive: 16.3%,
CCOC(=O)NC1=NCC(C)S1 (stereo unspecified),inactive: -3.45%,
Cc1ccc(Cc2cc(C)n[nH]c2=O)cc1,inactive: -6.34%,
Cc1ccccc1-c1noc(-c2ccccc2C(=O)NCC2CCCO2)n1 (stereo unspecified),inactive: -11.2%,
Cc1cc(C)nc(N2N=C(C(F)(F)F)CC2=O)n1,inactive: -12.4%,
Cc1n[nH]c(C)c1CCC(=O)N/N=C/c1cccs1,inactive: 15.4%,
Cc1cc(N2CCN(C(=O)c3ccco3)CC2)c2ccccc2n1,inactive: -3.52%,
CCOC(=O)c1c(NC(=S)NC)sc2c1CCCC2,inactive: 1.57%,
COCc1cc(=O)n2[nH]c(-c3cccs3)cc2n1,inactive: 3.23%,
COc1ccc(Oc2nc(-c3ccccn3)ncc2OC)cc1,inactive: -6.94% [at 82.4 µM],
Nc1nc(Nc2cccc(Cl)c2)n[nH]1,inactive: 9.81%,
Cc1ccc(OCC(=O)N(Cc2ccc(N(C)C)cc2)C2CCS(=O)(=O)C2)cc1C (stereo unspecified),inactive: 10.2%,
COCCNc1c2c(nc3c(-c4ccccc4)c(C)nn13)CCC2,inactive: 1.65%,
O=C(NC1CCSC1)c1cccc(Cl)c1 (stereo unspecified),inactive: 5.27%,
CCC(C)(C)C1CCc2[nH]nc(C(=O)N/N=C(\C)c3ccco3)c2C1 (stereo unspecified),inactive: 3.02%,
N/C(CN1CCSCC1)=N\OCc1c(F)cccc1Cl,inactive: 10.8%,
COc1ccc2nc3cc(Cl)ccc3c(C#N)c2c1,inactive: 13.3%,
CC(C)CC(=O)NC(=S)Nc1ccccc1N1CCCC1,inactive: 22.8%,
N#Cc1ccc(-c2cccnc2)nc1SCC(=O)c1ccccc1,inactive: 29.9%,
